The source of these data is publication PMC2680334, “Polo-Like Kinase 1 Directs Assembly of the HsCyk-4 RhoGAP/Ect2 RhoGEF Complex to Initiate Cleavage Furrow Formation” (PLoS Biology, 2009).

The target in this assay is GST–PBD^+ (Polo-box domain of Plk1), immobilised (human). As to the kind of experiment: pull-down; 10 µg immobilised GST–PBD^+ with about 650 µg HeLa lysate, 12–15 h at 4°C; cells blocked with nocodazole and treated with DMSO, 22.5 µM purvalanol A or 100 nM BI-2536; only the target purified.

These are yes or no findings as the source states them, for the method shown. Binding seen in cells or lysates may run through a third protein.

B1: HsCyk-4/MgcRacGAP, endogenous (protein, UniProt Q9H0H5 1-632)
chain: MDTMMLNVRNLFEQLVRRVEILSEGNEVQFIQLAKDFEDFRKKWQRTDHELGKYKDLLMKAETERSALDVKLKHARNQVDVEIKRRQRAEADCEKLERQIQLIREMLMCDTSGSIQLSEEQKSALAFLNRGQPSSSNAGNKRLSTIDESGSILSDISFDKTDESLDWDSSLVKTFKLKKREKRRSTSRQFVDGPPGPVKKTRSIGSAVDQGNESIVAKTTVTVPNDGGPIEAVSTIETVPYWTRSRRKTGTLQPWNSDSTLNSRQLEPRTETDSVGTPQSNGGMRLHDFVSKTVIKPESCVPCGKRIKFGKLSLKCRDCRVVSHPECRDRCPLPCIPTLIGTPVKIGEGMLADFVSQTSPMIPSIVVHCVNEIEQRGLTETGLYRISGCDRTVKELKEKFLRVKTVPLLSKVDDIHAICSLLKDFLRNLKEPLLTFRLNRAFMEAAEITDEDNSIAAMYQAVGELPQANRDTLAFLMIHLQRVAQSPHTKMDVANLAKVFGPTIVAHAVPNPDPVTMLQDIKRQPKVVERLLSLPLEYWSQFMMVEQENIDPLHVIENSNAFSTPQTPDIKVSLLGPVTTPEHQLLKTPSSSSLSQRVRSTLTKNTPRFGSKSKSATNLGRQGNFFASPMLK
With B1, the binding entry is “no binding”.
